Assay results taken from article PMC2731838.
No constants are given. Whether binding was seen depends on the method and setting. Binding can be weak; no strength is given.

What was measured:
Assay in all cases: two-hybrid; genome-wide array-based matrix screen, all against all; baits in pGBKT7-DEST (yeast Y187), preys in pGADT7-DEST (AH109); mated, 4 replicas, selection on SD -leu-trp-his; positive if at least 3 out of 4 colonies grew
[1] = molecular target: T1, EBV BFLF2 (Epstein-Barr virus (EBV)) (UniProt P0CK47)
T1 sequence: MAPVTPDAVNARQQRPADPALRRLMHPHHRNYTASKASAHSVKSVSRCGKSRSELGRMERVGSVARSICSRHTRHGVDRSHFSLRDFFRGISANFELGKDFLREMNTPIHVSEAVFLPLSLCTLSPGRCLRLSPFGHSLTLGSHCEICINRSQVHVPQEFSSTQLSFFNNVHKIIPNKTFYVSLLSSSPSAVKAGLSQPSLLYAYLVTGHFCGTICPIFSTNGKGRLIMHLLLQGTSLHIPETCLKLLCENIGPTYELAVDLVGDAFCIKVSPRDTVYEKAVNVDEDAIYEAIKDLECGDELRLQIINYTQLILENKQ

[2] = molecular target: T2, EBV smallest capsid protein (ortholog of mCMV m48.2) (Epstein-Barr virus (EBV)) (UniProt P14348)
T2 sequence: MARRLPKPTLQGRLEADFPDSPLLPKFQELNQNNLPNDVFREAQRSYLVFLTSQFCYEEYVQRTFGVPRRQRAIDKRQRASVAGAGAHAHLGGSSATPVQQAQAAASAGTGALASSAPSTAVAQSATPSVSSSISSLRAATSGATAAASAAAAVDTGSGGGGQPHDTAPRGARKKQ

[3] = molecular target: T3, EBV ortholog of HSV-1 UL16 (Epstein-Barr virus (EBV)) (UniProt P0CK53)
T3 sequence: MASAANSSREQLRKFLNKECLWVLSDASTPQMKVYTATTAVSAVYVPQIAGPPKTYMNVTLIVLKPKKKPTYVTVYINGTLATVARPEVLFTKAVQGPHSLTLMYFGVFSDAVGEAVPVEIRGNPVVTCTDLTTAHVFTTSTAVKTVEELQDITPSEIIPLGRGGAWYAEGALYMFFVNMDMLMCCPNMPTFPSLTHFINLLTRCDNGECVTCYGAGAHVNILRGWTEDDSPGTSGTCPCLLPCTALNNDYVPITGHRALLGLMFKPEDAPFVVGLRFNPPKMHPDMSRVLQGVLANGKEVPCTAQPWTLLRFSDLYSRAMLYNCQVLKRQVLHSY

| Substance | binding [1] | binding [2] | binding [3] |
| --- | --- | --- | --- |
| EBV BFRF4 (Epstein-Barr virus (EBV)) | binds | binds |  |
| EBV ortholog of HSV-1 UL11 (Epstein-Barr virus (EBV)) |  |  | binds |
